# In the supplement of paper PMC12067093, “Discovery and optimisation of a covalent ligand for TRIM25 and its application to targeted protein ubiquitination” (Chemical Science, 2025):
# By UniProt entry, the sequences of proteins in these tests, tags left out. Where a name states a change or a piece, a line headed by the entry shows the natural chain unless it says otherwise.
# UniProt P23368: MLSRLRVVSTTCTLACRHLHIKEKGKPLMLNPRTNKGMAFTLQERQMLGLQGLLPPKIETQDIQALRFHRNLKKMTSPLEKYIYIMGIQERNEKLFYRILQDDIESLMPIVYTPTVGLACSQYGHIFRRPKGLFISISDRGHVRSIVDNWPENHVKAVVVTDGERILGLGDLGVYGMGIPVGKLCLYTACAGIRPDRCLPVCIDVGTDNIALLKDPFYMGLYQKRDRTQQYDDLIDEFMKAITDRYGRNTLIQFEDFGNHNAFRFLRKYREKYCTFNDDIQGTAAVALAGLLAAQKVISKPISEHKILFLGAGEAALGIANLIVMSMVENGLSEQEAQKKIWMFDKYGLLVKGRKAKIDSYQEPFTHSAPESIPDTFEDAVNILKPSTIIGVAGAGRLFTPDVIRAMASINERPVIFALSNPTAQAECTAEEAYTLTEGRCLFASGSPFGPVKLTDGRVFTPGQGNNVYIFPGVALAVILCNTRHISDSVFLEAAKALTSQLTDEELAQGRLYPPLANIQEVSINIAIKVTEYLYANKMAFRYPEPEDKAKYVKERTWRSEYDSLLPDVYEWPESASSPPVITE
# UniProt Q10469: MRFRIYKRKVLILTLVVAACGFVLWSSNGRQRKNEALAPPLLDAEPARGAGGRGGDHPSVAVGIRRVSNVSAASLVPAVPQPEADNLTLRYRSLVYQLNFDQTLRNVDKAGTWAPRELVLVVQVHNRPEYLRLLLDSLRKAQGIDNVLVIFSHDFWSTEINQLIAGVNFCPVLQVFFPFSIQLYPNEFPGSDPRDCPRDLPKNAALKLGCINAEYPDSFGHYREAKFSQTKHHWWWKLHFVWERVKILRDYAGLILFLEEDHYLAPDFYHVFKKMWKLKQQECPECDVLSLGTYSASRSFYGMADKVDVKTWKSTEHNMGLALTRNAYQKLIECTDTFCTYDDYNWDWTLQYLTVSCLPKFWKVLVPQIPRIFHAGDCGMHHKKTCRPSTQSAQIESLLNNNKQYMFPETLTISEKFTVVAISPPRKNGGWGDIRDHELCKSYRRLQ
# UniProt Q9HCE5: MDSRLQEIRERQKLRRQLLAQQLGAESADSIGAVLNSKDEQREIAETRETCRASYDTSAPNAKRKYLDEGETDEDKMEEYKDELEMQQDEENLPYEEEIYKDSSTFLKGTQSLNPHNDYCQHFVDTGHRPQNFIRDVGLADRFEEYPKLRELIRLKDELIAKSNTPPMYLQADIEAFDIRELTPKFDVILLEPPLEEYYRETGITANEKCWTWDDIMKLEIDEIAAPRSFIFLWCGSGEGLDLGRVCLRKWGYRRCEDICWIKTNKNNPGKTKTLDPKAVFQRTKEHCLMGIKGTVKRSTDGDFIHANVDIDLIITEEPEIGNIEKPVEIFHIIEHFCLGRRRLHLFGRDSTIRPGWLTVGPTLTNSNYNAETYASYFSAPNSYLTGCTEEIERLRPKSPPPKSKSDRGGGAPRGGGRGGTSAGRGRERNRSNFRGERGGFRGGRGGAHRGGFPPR
# UniProt Q9NRN9: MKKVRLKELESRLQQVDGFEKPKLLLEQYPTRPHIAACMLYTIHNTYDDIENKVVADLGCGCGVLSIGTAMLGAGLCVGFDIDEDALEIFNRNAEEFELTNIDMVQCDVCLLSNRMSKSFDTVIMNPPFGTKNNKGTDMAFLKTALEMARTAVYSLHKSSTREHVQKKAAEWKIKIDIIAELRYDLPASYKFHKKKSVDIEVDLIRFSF
# UniProt P08582: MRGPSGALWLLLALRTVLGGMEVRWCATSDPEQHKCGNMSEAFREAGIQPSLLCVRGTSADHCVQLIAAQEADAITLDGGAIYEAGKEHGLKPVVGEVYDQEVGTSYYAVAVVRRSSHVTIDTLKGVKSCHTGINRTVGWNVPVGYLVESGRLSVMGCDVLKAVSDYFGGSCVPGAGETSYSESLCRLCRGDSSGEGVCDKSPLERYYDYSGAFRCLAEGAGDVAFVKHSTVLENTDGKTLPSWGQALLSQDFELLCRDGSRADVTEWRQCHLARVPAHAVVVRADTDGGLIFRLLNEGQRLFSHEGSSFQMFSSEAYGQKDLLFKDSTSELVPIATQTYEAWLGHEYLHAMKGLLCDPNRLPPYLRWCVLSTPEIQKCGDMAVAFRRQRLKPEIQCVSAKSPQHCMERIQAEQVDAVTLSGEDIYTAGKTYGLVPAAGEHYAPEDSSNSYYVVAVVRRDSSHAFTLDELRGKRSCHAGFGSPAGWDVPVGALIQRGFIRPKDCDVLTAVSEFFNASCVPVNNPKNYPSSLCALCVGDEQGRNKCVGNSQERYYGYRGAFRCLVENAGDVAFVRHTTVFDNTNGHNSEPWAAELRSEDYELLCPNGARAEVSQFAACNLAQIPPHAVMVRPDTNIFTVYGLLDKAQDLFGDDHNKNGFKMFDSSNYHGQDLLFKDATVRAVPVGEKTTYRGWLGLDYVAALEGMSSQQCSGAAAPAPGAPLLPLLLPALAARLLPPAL
# UniProt Q6UX53: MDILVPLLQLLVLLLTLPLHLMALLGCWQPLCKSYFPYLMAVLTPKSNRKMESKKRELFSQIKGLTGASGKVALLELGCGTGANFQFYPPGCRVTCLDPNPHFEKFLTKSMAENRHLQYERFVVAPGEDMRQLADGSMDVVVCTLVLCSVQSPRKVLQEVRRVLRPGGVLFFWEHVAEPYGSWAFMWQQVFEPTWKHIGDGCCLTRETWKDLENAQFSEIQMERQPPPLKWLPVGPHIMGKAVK
# UniProt Q6P2C8: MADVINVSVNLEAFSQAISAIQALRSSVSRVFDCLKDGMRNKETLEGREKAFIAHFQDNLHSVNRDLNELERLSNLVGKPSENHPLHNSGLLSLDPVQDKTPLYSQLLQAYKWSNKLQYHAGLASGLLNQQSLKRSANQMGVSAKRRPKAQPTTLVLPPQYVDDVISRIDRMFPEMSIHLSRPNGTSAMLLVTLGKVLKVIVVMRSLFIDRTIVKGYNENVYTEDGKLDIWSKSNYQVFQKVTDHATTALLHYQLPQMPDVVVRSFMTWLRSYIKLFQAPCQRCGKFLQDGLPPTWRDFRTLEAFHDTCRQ
# UniProt Q96PE7: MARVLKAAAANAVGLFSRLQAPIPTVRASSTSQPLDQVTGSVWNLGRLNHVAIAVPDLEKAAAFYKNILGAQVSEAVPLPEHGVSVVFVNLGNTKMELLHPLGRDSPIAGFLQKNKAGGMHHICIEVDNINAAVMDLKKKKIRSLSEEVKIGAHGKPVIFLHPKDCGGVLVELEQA
# UniProt Q9GZY8: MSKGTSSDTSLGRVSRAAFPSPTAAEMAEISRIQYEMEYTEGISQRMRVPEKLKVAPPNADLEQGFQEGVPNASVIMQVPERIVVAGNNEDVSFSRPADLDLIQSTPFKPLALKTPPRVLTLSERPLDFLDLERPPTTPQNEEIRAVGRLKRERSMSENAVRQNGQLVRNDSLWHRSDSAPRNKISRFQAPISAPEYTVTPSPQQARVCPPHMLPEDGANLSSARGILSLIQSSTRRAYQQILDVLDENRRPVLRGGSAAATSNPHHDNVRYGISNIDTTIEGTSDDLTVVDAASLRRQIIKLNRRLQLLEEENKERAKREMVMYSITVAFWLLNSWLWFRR
# UniProt O95568: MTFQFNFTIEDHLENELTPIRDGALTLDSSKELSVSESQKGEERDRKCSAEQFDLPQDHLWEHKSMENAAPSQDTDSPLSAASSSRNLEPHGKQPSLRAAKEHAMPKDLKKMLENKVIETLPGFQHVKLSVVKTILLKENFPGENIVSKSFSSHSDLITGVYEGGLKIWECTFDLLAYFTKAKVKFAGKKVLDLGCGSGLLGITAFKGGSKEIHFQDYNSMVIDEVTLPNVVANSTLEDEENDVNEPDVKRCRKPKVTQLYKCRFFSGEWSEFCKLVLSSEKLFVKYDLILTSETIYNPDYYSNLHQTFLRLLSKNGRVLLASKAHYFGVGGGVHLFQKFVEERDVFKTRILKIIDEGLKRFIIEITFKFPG
# UniProt P33992: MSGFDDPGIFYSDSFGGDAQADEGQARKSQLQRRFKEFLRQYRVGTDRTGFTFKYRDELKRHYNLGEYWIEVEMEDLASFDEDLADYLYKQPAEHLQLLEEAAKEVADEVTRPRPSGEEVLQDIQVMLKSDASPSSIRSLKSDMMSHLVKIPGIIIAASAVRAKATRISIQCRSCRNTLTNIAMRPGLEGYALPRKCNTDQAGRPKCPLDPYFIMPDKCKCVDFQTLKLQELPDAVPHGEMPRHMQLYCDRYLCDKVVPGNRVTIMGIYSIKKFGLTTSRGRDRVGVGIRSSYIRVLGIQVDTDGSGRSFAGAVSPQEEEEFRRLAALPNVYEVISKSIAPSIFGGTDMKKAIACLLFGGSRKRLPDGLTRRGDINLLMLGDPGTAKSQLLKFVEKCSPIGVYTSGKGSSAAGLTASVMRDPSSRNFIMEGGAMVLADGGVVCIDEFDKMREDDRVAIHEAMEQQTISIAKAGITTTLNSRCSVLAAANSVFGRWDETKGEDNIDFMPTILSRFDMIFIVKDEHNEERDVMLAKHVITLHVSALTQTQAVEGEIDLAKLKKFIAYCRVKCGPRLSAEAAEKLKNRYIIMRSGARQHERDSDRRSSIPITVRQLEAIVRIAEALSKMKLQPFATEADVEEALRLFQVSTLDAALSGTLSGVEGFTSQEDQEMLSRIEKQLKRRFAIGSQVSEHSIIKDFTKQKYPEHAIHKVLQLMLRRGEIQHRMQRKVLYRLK
# UniProt O14880: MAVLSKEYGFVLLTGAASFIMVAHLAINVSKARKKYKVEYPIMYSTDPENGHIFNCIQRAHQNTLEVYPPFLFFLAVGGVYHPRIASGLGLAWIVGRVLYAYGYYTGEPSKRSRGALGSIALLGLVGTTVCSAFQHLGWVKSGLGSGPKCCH
# UniProt P49736, whole entry, looked up: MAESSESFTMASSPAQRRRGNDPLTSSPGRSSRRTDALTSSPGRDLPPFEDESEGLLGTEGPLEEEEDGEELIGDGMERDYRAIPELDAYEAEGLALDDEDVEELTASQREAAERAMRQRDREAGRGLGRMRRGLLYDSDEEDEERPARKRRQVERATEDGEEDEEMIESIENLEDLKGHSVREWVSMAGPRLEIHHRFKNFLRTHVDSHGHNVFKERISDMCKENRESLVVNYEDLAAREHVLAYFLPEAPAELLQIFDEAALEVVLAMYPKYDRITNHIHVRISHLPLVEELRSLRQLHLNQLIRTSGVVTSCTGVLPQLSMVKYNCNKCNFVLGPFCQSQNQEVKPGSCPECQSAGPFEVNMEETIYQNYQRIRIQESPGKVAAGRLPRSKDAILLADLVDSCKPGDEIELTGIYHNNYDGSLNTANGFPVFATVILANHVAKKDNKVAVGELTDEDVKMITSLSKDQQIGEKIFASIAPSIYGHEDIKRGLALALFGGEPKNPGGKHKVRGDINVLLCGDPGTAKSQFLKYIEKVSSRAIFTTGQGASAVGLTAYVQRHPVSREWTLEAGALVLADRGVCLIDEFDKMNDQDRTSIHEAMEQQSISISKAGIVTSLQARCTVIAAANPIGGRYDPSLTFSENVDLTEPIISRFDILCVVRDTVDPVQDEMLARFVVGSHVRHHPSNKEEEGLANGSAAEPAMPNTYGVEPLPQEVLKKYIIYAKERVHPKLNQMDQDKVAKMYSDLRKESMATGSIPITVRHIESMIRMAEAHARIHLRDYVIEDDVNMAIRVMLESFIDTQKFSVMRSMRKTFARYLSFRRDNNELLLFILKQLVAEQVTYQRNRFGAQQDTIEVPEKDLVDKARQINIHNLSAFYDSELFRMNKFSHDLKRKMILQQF
# UniProt P10620: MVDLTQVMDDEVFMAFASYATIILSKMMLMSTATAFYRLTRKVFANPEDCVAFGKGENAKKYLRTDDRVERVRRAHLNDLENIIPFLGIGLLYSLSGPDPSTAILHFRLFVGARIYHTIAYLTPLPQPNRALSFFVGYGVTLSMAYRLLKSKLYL
# UniProt P33993, whole entry, looked up: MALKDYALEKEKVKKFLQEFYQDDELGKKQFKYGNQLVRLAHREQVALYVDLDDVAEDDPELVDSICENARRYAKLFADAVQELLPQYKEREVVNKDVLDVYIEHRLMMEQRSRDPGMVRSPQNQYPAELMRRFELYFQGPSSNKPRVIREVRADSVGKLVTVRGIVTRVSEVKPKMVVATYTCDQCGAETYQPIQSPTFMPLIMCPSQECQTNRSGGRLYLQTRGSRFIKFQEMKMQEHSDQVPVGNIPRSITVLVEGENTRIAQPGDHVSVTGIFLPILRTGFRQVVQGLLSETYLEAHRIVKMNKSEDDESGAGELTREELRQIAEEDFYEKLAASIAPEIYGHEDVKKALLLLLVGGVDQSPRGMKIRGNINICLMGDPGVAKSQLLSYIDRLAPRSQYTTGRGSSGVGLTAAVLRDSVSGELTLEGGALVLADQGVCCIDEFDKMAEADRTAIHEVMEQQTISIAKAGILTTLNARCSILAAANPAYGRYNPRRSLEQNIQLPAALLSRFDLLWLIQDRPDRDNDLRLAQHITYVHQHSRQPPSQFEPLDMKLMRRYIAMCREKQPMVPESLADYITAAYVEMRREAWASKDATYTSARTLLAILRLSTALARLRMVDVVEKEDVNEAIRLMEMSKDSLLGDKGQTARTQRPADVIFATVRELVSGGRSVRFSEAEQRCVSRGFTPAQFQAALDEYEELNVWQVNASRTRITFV
# The other results are listed elsewhere or left out.
# Compound: Cc1cc(ccc1-c1ccccc1)C(=O)N1CCCN(CC1)C(=O)CCl [compound 10]
# Assay: probe-labelled cysteine peptide fold change vs DMSO (competition) (log2 fold change); higher = less target engagement (more negative = stronger competition)
# Details: THP-1, incubation time: 4 h
# 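Further: competitive profiling in live THP-1 cells: cysteine peptides tagged with an iodoacetamide desthiobiotin (IA-DTB) probe, intensity after compound treatment relative to DMSO-treated cells.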
Target,probe-labelled cysteine peptide fold change (10 µM),probe-labelled cysteine peptide fold change (50 µM)
MGMT_P16455_24_LELSGCEQGLHEIK (UniProt P16455),-0.596,-0.52
MDN1_Q9NU22_1394_ALEFGEPVLLVGDTGCGK (UniProt Q9NU22),-0.295,0.258
MCTS1_Q9ULC4_144_QHALCVGVMK (UniProt Q9ULC4),0.104,-0.154
METAP2_P50579_121_VQTDPPSVPICDLYPNGVFPK (UniProt P50579),-0.176,0.0192
ME2_P23368_198+202_CLPVCIDVGTDNIALLK (UniProt P23368),-0.0482,-0.211
MED24_O75448_816_LAVWCALSSYSSHK (UniProt O75448),0.0802,0.261
MFSD2A_Q8NA29_44_KQQLSVCNK (UniProt Q8NA29),-0.432,-0.586
MED13_Q9UHV7_1228_DCCNDCYLALEHGR (UniProt Q9UHV7),-0.00488,0.125
MGAT2_Q10469_440_NGGWGDIRDHELCK (UniProt Q10469),-0.212,0.00707
MEIOC_A2RUB1_875_CQDDRDVFALASAIK (UniProt A2RUB1),-0.168,-0.53
METTL14_Q9HCE5_256+260_CEDICWIK (UniProt Q9HCE5),-0.0382,-0.163
METTL5_Q9NRN9_107+110_NAEEFELTNIDMVQCDVCLLSNR (UniProt Q9NRN9),0.0535,-0.63
MELTF_P08582_397_LKPEIQCVSAK (UniProt P08582),-0.326,0.0466
METTL7B_Q6UX53_203_HIGDGCCLTR (UniProt Q6UX53),-0.0981,-0.521
MGAT2_Q10469_210_LGCINAEYPDSFGHYR (UniProt Q10469),-0.101,0.106
MDN1_Q9NU22_3690_LLGSQLLACTLSHNTLFGEAPSDLMVKPDGPYDFYQHPNVPEAR (UniProt Q9NU22),0.432,0.0904
MCM3_P25205_407_GVVCIDEFDK (UniProt P25205),-0.219,-0.0599
ME2_P23368_441_CLFASGSPFGPVK (UniProt P23368),-0.169,-0.0582
ME2_P23368_274_YCTFNDDIQGTAAVALAGLLAAQK (UniProt P23368),0.0399,0.311

Target,probe-labelled cysteine peptide fold change (10 µM),probe-labelled cysteine peptide fold change (50 µM)
MCM3AP_O60318_588_AHQFEGDSFDSASEGSEGLGPCVLSLSTLIGTVAETSK (UniProt O60318),-0.0827,-0.444
MCM6_Q14566_158_THPVHPELVSGTFLCLDCQTVIRDVEQQFK (UniProt Q14566),0.0358,-0.522
MED27_Q6P2C8_309_TLEAFHDTCRQ (UniProt Q6P2C8),-0.126,0.0423
MCEE_Q96PE7_166_DCGGVLVELEQA (UniProt Q96PE7),-0.0643,0.17
MCM3AP_O60318_439_SESTDSLGGLSPSEVTAIQCK (UniProt O60318),-0.0959,-0.165
MFF_Q9GZY8_209_VCPPHMLPEDGANLSSAR (UniProt Q9GZY8),-0.117,-0.123
MED24_O75448_546_ILNPDHPCFRPDSTKVESLVALLNNSSEMK (UniProt O75448),-0.254,-0.636
METTL18_O95568_48_CSAEQFDLPQDHLWEHK (UniProt O95568),-0.36,-0.308
MCM5_P33992_221_CVDFQTLK (UniProt P33992),0.05,-0.397
MCM5_P33992_197_KCNTDQAGR (UniProt P33992),0.0375,-0.279
MCM3AP_O60318_800_GVFCASEAEFQGYNVLLSLNK (UniProt O60318),0.186,0.139
MGST3_O14880_56_YKVEYPIMYSTDPENGHIFNCIQR (UniProt O14880),0.0464,-0.056
MCM2_P49736_522_GDINVLLCGDPGTAK (UniProt P49736),-0.0156,0.0547
MGA_Q8IWI9_1146_KLEYTICETEPEQPVR (UniProt Q8IWI9),-0.333,-0.12
MELTF_P08582-2_256_SEEEEGECPAHEEAR (UniProt P08582),-0.0519,0.438
MGST1_P10620_50_VFANPEDCVAFGKGENAK (UniProt P10620),-0.242,-0.298
MFN1_Q8IWA4_513_LCSDFQEDIVFR (UniProt Q8IWA4),-0.0991,0.451
MCM7_P33993_566_YIAMCR (UniProt P33993),-0.553,-0.395
MCM6_Q14566_161_THPVHPELVSGTFLCLDCQTVIR (UniProt Q14566),0.209,0.0343

# Quoted from the listing.
# probe-labelled cysteine peptide fold change (10 µM), MED27_Q6P2C8_309_TLEAFHDTCRQ (UniProt Q6P2C8) is entered as -0.126
# probe-labelled cysteine peptide fold change (50 µM), MGST3_O14880_56_YKVEYPIMYSTDPENGHIFNCIQR (UniProt O14880) is entered as -0.056
